Negatives hold for the conditions tested. For part of these data: At least one verdict rests on a figure or table, not on a statement of the authors. Construct, isoform or probe ends are uncertain for at least one entry.
The sequences below were run against His-HSFA2 (UniProt O80982) (assay: EMSA). Conditions: HSFA2: 10 mM Tris-HCl pH 7.6, 25 mM KCl, 2.5 mM MgCl2, 1 mM EDTA, 1 mM DTT, 10% glycerol, 25 C 30 min, REF6C: 25 mM Tris-HCl pH 8.0, 100 mM NaCl, recombinant protein, residues 1-345, label: Cy5 end.

By UniProt entry, the sequences of proteins in these tests, tags left out. Where a name states a change or a piece, a line headed by the entry shows the natural chain unless it says otherwise.
UniProt O80982: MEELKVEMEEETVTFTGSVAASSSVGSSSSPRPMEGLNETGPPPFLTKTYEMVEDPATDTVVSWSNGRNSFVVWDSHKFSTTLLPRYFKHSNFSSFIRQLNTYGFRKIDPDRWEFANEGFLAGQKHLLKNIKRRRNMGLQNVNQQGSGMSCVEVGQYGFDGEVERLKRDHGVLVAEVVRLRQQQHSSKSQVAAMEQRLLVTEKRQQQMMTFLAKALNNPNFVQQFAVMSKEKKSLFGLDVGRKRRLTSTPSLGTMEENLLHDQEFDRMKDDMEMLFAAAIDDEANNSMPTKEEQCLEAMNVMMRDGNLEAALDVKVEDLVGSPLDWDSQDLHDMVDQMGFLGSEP
UniProt Q9STM3: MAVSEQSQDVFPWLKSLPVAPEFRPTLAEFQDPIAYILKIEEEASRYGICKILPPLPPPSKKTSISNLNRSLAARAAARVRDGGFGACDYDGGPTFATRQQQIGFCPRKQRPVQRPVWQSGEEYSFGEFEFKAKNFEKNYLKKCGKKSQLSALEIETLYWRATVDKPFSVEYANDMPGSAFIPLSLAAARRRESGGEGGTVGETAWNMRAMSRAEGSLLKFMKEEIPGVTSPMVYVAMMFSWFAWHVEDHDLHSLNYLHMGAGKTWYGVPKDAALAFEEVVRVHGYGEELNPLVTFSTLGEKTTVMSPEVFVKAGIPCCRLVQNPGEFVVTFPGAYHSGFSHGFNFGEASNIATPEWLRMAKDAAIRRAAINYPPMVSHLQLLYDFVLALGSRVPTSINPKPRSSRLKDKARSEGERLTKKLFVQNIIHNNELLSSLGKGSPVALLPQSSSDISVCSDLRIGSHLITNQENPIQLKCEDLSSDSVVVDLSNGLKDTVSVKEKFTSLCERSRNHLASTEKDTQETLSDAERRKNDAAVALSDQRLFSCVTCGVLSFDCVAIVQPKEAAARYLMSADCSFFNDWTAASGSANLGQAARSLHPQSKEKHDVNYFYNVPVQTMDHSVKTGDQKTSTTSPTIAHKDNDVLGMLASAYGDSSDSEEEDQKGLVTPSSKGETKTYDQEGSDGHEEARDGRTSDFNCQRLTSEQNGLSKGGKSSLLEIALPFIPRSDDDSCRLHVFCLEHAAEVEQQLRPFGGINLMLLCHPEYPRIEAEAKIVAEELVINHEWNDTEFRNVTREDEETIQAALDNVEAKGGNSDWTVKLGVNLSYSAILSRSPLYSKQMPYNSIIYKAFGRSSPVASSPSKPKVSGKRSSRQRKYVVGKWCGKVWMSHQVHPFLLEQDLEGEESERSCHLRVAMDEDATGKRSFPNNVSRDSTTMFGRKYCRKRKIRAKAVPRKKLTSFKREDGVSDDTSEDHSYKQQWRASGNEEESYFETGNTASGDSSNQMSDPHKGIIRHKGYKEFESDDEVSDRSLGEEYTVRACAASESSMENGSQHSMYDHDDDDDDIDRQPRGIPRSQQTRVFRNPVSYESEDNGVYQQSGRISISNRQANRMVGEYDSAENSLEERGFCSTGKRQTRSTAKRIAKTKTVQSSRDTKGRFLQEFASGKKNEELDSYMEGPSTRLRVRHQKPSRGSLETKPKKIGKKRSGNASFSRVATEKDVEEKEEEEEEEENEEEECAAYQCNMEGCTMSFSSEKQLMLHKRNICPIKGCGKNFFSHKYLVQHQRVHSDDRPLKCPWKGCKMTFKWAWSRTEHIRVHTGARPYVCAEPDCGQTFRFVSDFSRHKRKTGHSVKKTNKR

Row | Sequence | binding result
1 | AGCCAGTGGCGATAAGAAATTCTTGTGGAACATGAACTTATCGCCACTGGCT (double strand) [SGIP1-HSE-P1] | binds
2 | AGCCAGTGGCGATAAGATTGGAATTCCCAAACGCGACTTATCGCCACTGGCT (double strand) [SGIP1-HSE-P2] | binds
3 | AGCCAGTGGCGATAAGCGTCGTTTTTTTCGAGGAAAAGTGAATGCTTATCGCCACTGGCT (double strand) [REF6-HSE-P2] | no binding
4 | AGCCAGTGGCGATAAGGAAGGTCCTTCACACGCGCCTCCCTTATCGCCACTGGCT (double strand) [SGIP1-HSE-P3] | binds

What follows are sequences tested against GST-REF6C (UniProt Q9STM3) (assay: EMSA). Conditions: 1 uM ZnSO4, HSFA2: 10 mM Tris-HCl pH 7.6, 25 mM KCl, 2.5 mM MgCl2, 1 mM EDTA, 1 mM DTT, 10% glycerol, 25 C 30 min, REF6C: 25 mM Tris-HCl pH 8.0, 100 mM NaCl, recombinant protein, protein details: GST, label: Cy5 end.

Row | Sequence | binding result
5 | AGCCAGTGGCGATAAGCTAAGTTCAATCCTAAGTTTCTTATCGCCACTGGCT (double strand) [HSFA2-REF6-mu] | no binding
6 | AGCCAGTGGCGATAAGCTCTGTTCAATCCTCTGTTTCTTATCGCCACTGGCT (double strand) [HSFA2-REF6-WT] | binds

From publication PMC6796840
